Experimental findings from patent US20220273754A1, “SS-31 FOR THE PREVENTION AND/OR TREATMENT OF ANEURYSM” (FUNDACIÓ INSTITUT DE RECERCA DE L'HOSPITAL DE LA SANTA CREU …, priority 2019, published 2022) are described below.

In this data set the test system is ApoE−/− mice infused with Ang II. Nature of the data set: Systolic blood pressure (CODA tail-cuff) in Ang II-infused ApoE−/− mice. The conditions noted are these: 3 mg/kg/day with Ang II 1000 ng/kg/min by osmotic minipump, end of treatment (28 days). It is filed as in vivo.

Non-standard residues stand in square brackets, D forms with d. No end group written: not given here.

Turning to “D-Arg-2′,6′-dimethyltyrosine-Lys-Phe-NH2 [SS-31]”, the systolic blood pressure result is recorded as “not significantly altered”. Then F[dR]FK-NH2 [SS-20], with “not significantly altered”.
